Measurements from “University of Dundee, Small-Polar-MMV Screening Library” (2021), ChEMBL document CHEMBL3988442.

Mtb growth Cornell: 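Whole-cell assay for inhibitors of Mycobacterium tuberculosis growth, labelled Cornell in the record; the read-out is not stated. The concentration is filed as 10 mM, unlikely as a test dose, so the dose is not known. The record gives no direction; compounds strong in two other growth screens of this library score well above the rest, so higher reads as stronger inhibition. About 53,000 compounds were tested under these conditions; 1.7% (about 900) showed 50% or more at least once.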
Mtb heat-shock: 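Assay on Mycobacterium tuberculosis, filed only as a heat shock assay from Cornell; the read-out is not stated. The concentration is filed as 10 mM, unlikely as a test dose, so the dose is not known. The record gives no direction; compounds that gave an IC50 in retests scored well above the rest, so higher reads as stronger inhibition. Of about 69,000 compounds tested this way, about 930 (1.4%) reached 50% or more in at least one test.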

The filed quantity is “Percent Effect” (%). How 0% and 100% were set is not recorded. Most values in the screen are low, and negative values occur. The compounds are a random part of those screened. A dash means the value is not listed here; it may have been measured.

SMILES	Mtb growth Cornell	Mtb heat-shock
Fc1cccc(C(NCc2ncc[nH]2)c2ccccc2)c1 (centres undefined)	-	-2.271
O=C(c1cscn1)N1CCc2ncc(Cn3cncn3)n2CC1	1.877	-11.31
Cc1[nH]nc2ncc(C(=O)N3CCN(CC(C)C)CC3)cc12	19.24	-7.692
COCCN1Cc2nccn2CC(COCc2csc(C)n2)C1.O=C(O)C(F)(F)F.O=C(O)C(F)(F)F (centres undefined)	9.867	2.482
O=C(O)C(F)(F)F.O=C(O)C(F)(F)F.[H][C@@]12OCCN(Cc3ccc(OC)cc3)[C@@]1([H])CC[C@H]2Oc1ccccn1	32.3	-17.65
O=C(NCCCn1cccn1)C1(c2ccc(F)cc2)CC1	-18.22	17.4
CC(C(=O)NCCOc1ccccc1)n1cncn1 (centres undefined)	-	-16.9
CCN(CC)C(=O)C1(NCc2nc(C)c(C)o2)CCCCC1	-	-32.51
CC(C)(O)CCc1ccc(C(=O)N2CCN(CC3CCCC3)CC2)cc1	32.35	-21.96
O=C(O)C(F)(F)F.[H][C@@]12C[C@@H](OCC)CN1CCN(S(=O)(=O)c1cccs1)C2	7.997	2.702
[H][C@@]12COCC[C@]1([H])C[C@H](N(CC(=O)NC)C(=O)c1ccccc1)C2	2.505	1.726
O=CO.c1cc2nccc(CC3CCCN(C4CCOCC4)CC3)c2cn1 (centres undefined)	-1.648	-0.8025
Cc1ccn(-c2ccnc(N3CCN(c4ncccn4)CC3)n2)n1	1.442	8.683
COc1cccc2c1OCC(CNC(=O)Cc1cnccn1)C2 (centres undefined)	6.004	-27.86
Cc1cnn(CC2CCCN2C(=O)c2n[nH]c(=O)c3ccccc23)c1 (centres undefined)	-	-8.078
O=C(O)C(F)(F)F.[H][C@@]12OCCC[C@]1([H])N(C)C[C@@H]2NC(=O)c1cscn1	-13.5	27.45
COc1cc(C(=O)Nc2cn[nH]c2)ccc1C	-	-19.45
CN(Cc1nc(N)c2ccccc2n1)CC1CCCN1c1cccnn1 (centres undefined)	-	14.48
CN(C)C(=O)C1CCCN1c1ccnc2ccsc12 (centres undefined)	-1.964	0.5579
CNc1cc(-c2nc(CCN3CCCC3=O)no2)ccn1	-17.12	2.302
CC(C)c1ccc(/C=C/CC(=O)NC2CCN(C(N)=O)C2)cc1 (centres undefined)	-	-89.17
COc1ccc(Br)cc1NCC(=O)NC(C)(C#N)C1CC1 (centres undefined)	12.02	-26.46
O=C(NCC1CC1)C1CN(C(=O)c2cccnc2)CC12CCOCC2 (centres undefined)	6.362	17.66
O=C(NCCc1cccs1)NCC(O)c1cccc(F)c1 (centres undefined)	-0.7541	-15.9
COCc1c(Cl)cccc1NC(=O)CNC(=O)C(C)(C)C	-24.55	4.447
c1ccc(-c2nc(CCNC3CCOC4(CCOCC4)C3)no2)cc1 (centres undefined)	11.78	9.749
Cn1nccc1-c1nnn2c1COC(CNCc1nccs1)C2.O=C(O)C(F)(F)F (centres undefined)	-	-13.25
CCOCC1CN(S(=O)(=O)C2CC2)Cc2cnn(C)c21 (centres undefined)	-36.4	-9.162
[H][C@@]12OCCN(C(=O)c3nn(C)c4ccccc34)[C@@]1([H])CC[C@H]2OC(C)C	4.286	30.44
Cc1ccc(NC2CCN(C(=O)COC3CCCC3)CC2)nn1	4.845	-10.75
[H][C@]12CN(c3ncc(CC)cn3)C[C@@]1([H])S(=O)(=O)CC[C@@H]2C(=O)NCC(C)C	10.25	-29.1
CC(=O)N[C@@H](CC(C)C)C(=O)N1CCC(n2cc(C(C)(C)N)nn2)CC1	5.115	2.679
Cc1ncc(-c2ccncc2)c(C2CCN(C(=O)c3ccco3)CC2)n1	12.48	3.606
Cc1occc1CNC(=O)C1CCCN1C(=O)C1CC1 (centres undefined)	-22.97	8.675
N#CCCCOc1cccnc1NC(=O)Cc1ccccc1F	4.842	-22.13
Cn1c(NCC(=O)N2CCCC2)c(C#N)c(=O)n(C)c1=O	-	-10.89
Cc1noc(C)c1CN(C)C(=O)COc1cccc(C#N)c1	-52.39	16.63
O=C(c1ccc(CN2CC(n3cccn3)C2)cc1)N1CCCC1	-	-15.52
CC(C)c1nc(CN(C)Cc2ccc(F)cc2)cs1	20.72	23.74
CCCc1nc(C)c(C(=O)NS(=O)(=O)c2cccnc2)s1	7.886	-7.912
O=C(c1cccc2cccnc12)N1CCCN(c2cccnn2)CC1	-	-38.24
CCCN(CC)C(=O)c1cc(Cn2c(C)nc3ccccc32)[nH]n1	-	20.7
COc1cc(CSc2nnc(N)n2C2CC2)ccc1SC	6.851	-11.39
COc1c(CNC2CCc3ccccc32)c(C(C)C)nn1C (centres undefined)	-	-0.2601
CC(NC(=O)N(C)Cc1ccc2c(c1)OCO2)c1nncn1C (centres undefined)	0.4525	-2.059
Cc1nc2ccccc2c(=O)n1CCC(=O)N1CCCCCC1	-	-16.78
Cc1cccc(CN2CC3(CCN(Cc4ccco4)CC3)OCC2=O)n1.O=C(O)C(F)(F)F.O=C(O)C(F)(F)F	-	-33.98
CN(C)C(=O)c1c[nH]nc1C1CCN(S(=O)(=O)c2cccc(Cl)c2)CC1	0.9972	-7.15
CCOCC(O)CN1CCN(C(=O)c2ccc(N(C)C)nn2)CC1 (centres undefined)	-	-21.5
Fc1ccc(CN[C@@H]2COC[C@H]2c2ccc(F)cc2)cc1.O=C(O)CC(O)(CC(=O)O)C(=O)O	9.042	2.118
CC1CCN(C(=O)CSc2nc3c(cnn3CCO)c(=O)[nH]2)CC1	-20.6	10.92
[H][C@@]12COC[C@]1(COCC(=O)N1CCCC1)CN(S(C)(=O)=O)C2	0.8394	10.14
O=C(C1CCC1)N1CCCC(c2ccnc(Nc3cnccn3)n2)C1 (centres undefined)	1.719	-4.004
c1ccc(-c2nn3c(CN4CCOCC4)nnc3s2)nc1	-	1.276
[H][C@@]12CNC[C@]1([H])[C@H]2CN1CCn2nc(CNC(=O)N(C)C)cc2C1	-	-4.342
COCCS(=O)(=O)NC(C)c1ccccc1Cl (centres undefined)	-19.4	13.05
O=C(O)C(F)(F)F.O=C(O)C(F)(F)F.[H][C@@]12COC[C@]1(CN(C)C)CN(Cc1ccc(OC)cc1)C2	6.593	9.51
O=C1CN(C(=O)C2CCOC2)CCN1Cc1ccc(Cl)cc1 (centres undefined)	7.805	7.706

Once more, the final 6:

* O=C(C1CCC1)N1CCCC(c2ccnc(Nc3cnccn3)n2)C1 (centres undefined) : Mtb growth Cornell: 1.719%; Mtb heat-shock: -4.004%
* c1ccc(-c2nn3c(CN4CCOCC4)nnc3s2)nc1 : Mtb heat-shock: 1.276%
* [H][C@@]12CNC[C@]1([H])[C@H]2CN1CCn2nc(CNC(=O)N(C)C)cc2C1 : Mtb heat-shock: -4.342%
* COCCS(=O)(=O)NC(C)c1ccccc1Cl (centres undefined) : Mtb growth Cornell: -19.4%; Mtb heat-shock: 13.05%
* O=C(O)C(F)(F)F.O=C(O)C(F)(F)F.[H][C@@]12COC[C@]1(CN(C)C)CN(Cc1ccc(OC)cc1)C2 : Mtb growth Cornell: 6.593%; Mtb heat-shock: 9.51%
* O=C1CN(C(=O)C2CCOC2)CCN1Cc1ccc(Cl)cc1 (centres undefined) : Mtb growth Cornell: 7.805%; Mtb heat-shock: 7.706%